# The other results are listed elsewhere or left out.
# Sequences of proteins named here, by UniProt entry; tags and fusion partners are left off. A change or cut given only in a name is not applied to a line headed by its entry.
# UniProt Q8WWL2: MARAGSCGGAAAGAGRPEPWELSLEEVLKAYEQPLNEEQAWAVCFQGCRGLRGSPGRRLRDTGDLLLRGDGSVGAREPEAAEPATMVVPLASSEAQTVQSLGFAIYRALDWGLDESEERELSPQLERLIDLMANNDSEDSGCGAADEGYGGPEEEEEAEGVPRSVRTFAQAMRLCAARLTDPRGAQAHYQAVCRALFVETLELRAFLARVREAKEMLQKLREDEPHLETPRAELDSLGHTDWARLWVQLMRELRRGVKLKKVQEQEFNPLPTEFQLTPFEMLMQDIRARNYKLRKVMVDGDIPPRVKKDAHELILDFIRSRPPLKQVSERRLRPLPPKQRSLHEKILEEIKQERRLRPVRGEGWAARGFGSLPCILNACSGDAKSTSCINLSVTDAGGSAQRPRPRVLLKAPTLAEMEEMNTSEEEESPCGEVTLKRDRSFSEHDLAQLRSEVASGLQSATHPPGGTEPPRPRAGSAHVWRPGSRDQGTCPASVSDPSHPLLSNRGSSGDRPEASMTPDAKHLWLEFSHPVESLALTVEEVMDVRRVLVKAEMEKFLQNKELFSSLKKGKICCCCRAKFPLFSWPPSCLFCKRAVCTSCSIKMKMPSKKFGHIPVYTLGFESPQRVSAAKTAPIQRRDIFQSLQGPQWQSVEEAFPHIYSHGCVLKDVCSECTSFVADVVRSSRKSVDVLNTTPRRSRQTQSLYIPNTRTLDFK
# UniProt Q08AE8, whole entry, looked up: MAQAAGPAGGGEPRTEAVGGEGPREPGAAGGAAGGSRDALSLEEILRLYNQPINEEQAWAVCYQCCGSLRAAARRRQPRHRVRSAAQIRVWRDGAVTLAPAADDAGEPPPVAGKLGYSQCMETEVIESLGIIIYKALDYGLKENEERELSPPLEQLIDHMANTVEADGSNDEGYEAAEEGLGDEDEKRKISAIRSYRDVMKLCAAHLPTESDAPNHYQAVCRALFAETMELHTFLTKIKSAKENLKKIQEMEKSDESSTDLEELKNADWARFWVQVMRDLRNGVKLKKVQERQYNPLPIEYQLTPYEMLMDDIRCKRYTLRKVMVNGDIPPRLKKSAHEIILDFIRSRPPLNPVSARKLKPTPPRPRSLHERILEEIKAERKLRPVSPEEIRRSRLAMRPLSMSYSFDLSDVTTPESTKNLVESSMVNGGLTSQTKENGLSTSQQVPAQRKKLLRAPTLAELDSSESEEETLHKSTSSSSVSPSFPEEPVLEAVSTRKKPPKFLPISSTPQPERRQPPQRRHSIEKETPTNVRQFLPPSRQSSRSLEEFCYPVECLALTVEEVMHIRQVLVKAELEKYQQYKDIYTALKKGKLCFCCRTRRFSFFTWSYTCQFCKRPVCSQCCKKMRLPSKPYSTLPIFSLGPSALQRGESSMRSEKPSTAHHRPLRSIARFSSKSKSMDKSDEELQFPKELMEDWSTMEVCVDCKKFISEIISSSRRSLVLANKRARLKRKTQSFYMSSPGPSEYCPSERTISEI
# UniProt Q16384, whole entry, looked up: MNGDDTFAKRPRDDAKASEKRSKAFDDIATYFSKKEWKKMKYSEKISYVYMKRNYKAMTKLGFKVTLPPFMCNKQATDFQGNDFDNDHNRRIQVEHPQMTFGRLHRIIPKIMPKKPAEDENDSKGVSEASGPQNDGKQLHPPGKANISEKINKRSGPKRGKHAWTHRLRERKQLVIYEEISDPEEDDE
# UniProt P81877: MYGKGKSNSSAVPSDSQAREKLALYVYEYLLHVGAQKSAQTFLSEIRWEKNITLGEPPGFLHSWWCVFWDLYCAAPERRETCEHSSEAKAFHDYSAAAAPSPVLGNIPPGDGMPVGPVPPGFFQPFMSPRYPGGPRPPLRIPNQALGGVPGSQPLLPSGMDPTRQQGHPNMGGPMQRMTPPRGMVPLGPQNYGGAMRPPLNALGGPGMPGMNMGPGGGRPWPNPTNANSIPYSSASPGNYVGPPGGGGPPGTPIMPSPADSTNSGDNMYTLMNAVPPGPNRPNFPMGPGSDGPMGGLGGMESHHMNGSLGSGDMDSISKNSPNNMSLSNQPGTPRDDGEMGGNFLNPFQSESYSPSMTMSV
# UniProt P49842: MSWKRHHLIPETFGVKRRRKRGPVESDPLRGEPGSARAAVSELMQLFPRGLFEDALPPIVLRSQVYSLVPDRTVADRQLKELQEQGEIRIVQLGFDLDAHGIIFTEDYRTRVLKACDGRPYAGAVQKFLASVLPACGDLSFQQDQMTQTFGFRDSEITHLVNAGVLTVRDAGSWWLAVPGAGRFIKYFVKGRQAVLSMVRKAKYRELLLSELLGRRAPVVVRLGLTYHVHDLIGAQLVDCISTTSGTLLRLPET
# UniProt Q9NRA0: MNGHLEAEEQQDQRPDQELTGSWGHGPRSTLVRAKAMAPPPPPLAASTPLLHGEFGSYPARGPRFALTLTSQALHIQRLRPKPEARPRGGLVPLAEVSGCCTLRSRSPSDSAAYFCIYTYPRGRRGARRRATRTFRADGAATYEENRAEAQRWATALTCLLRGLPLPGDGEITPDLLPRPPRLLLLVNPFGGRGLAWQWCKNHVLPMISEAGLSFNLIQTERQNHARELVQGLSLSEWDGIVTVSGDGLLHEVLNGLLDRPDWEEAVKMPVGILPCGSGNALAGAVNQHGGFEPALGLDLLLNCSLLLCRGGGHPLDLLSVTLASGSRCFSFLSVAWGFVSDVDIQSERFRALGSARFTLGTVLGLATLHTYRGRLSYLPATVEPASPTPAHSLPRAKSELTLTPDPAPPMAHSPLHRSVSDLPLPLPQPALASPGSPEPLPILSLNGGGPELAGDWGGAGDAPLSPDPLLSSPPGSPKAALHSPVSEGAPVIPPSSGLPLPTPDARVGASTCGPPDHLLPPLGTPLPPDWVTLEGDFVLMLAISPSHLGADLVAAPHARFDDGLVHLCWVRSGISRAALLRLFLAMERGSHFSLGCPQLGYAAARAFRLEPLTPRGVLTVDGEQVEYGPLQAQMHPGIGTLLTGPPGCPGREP
# UniProt Q11201: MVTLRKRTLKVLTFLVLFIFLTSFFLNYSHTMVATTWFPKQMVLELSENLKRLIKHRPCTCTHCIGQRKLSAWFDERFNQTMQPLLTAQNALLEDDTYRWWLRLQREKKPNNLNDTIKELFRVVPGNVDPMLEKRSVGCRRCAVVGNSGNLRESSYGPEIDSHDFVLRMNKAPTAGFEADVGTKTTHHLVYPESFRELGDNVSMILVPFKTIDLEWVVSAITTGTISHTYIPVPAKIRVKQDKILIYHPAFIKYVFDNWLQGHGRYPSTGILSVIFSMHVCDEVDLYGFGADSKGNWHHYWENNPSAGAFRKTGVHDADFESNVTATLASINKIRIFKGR
# UniProt P35325: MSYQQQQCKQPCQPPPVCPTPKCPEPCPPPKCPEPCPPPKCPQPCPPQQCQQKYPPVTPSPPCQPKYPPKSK
# UniProt Q9C0H9: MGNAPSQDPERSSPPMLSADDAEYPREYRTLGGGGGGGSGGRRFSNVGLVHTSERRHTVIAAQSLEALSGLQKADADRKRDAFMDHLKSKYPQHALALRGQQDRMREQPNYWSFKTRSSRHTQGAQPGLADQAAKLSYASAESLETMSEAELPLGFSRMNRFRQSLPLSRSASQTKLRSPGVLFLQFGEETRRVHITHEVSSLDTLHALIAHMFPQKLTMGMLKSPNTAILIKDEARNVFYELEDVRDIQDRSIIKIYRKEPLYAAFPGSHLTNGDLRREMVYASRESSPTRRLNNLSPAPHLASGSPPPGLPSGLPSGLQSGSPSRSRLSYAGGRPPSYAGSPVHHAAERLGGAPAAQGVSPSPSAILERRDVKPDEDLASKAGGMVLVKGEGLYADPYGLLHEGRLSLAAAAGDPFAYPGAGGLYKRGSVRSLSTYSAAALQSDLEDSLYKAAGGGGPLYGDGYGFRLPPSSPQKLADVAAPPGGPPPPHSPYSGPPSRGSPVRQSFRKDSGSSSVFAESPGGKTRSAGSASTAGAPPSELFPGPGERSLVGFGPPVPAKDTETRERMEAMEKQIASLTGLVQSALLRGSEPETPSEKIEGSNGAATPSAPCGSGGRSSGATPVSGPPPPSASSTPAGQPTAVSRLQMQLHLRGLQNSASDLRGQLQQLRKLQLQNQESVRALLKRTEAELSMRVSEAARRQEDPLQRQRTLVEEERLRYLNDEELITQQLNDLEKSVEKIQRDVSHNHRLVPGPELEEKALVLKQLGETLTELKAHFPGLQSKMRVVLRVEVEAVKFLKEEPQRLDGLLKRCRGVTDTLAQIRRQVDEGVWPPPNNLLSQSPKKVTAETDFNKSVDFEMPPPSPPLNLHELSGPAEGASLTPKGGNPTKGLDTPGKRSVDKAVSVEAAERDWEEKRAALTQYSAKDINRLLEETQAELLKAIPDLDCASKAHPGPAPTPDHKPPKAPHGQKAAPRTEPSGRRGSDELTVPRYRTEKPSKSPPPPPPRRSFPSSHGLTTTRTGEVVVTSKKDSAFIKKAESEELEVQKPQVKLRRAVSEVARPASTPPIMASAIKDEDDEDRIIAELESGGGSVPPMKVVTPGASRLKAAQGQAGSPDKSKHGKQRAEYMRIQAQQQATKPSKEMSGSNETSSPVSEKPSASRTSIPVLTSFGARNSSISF
# UniProt Q76I76: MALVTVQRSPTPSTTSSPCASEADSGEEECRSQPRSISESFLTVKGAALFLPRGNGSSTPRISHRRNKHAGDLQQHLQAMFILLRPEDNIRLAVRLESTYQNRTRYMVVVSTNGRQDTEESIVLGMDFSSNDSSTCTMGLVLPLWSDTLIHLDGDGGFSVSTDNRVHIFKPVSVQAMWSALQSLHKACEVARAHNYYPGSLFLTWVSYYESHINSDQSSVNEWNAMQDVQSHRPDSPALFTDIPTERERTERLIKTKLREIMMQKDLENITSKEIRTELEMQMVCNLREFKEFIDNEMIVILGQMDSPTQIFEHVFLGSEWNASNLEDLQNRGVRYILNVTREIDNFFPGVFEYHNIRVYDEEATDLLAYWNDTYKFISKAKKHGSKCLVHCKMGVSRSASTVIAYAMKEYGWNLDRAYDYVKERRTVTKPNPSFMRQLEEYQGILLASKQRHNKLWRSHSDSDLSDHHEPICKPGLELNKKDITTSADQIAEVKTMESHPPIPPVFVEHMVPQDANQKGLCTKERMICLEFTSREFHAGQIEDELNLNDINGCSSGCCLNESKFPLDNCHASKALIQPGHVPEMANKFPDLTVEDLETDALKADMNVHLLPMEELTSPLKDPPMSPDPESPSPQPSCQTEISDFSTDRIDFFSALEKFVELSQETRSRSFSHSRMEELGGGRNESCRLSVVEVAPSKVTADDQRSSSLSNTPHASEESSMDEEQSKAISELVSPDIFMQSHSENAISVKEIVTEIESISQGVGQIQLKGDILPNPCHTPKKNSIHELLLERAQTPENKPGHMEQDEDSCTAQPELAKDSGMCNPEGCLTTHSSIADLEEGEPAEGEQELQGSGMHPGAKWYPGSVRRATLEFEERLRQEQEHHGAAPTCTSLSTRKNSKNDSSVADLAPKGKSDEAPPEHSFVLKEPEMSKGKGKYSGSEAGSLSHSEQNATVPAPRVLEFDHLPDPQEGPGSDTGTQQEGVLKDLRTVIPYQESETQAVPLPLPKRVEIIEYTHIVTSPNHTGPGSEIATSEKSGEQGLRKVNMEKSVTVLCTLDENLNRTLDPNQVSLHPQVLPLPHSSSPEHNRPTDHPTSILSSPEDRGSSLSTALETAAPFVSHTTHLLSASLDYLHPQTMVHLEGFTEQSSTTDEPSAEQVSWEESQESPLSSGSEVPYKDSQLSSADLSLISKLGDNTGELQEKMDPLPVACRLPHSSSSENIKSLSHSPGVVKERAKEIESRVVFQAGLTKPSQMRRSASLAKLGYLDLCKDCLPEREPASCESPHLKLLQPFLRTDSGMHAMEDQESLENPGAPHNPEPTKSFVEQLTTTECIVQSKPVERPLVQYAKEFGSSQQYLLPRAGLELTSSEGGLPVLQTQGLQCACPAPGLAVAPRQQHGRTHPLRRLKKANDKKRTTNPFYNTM
# UniProt Q9Y365: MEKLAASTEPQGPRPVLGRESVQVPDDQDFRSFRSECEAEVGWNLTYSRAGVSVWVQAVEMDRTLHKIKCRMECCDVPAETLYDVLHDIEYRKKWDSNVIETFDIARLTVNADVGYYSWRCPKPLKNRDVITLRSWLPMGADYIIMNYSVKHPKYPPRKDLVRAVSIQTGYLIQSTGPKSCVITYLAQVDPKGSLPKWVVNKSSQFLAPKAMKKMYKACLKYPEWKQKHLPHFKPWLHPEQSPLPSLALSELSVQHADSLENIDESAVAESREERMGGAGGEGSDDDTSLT
# UniProt O76061, whole entry, looked up: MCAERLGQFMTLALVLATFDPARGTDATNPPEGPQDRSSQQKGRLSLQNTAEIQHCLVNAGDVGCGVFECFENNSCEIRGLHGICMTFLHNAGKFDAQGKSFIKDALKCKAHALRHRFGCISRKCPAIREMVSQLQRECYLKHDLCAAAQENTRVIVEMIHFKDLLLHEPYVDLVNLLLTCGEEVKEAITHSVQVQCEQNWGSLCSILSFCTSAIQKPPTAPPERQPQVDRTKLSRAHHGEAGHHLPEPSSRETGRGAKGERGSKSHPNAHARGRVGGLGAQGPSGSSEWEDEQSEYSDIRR
# Legend:
# Experiment in all cases: log2 fold change, soluble protein after heating vs DMSO (PISA); higher = thermal stabilisation; K562 cells, 10 uM, 30 min; active = over 0.2 and 3.5 SD of the protein, either way, in both replicates (recomputed)
# [1] = compound: NC(=O)c1cnc(N[C@@H]2CCCC[C@@H]2N)nc1Nc1cccc(-n2nccn2)c1
# Procedure, shortened: (§1)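 K562 cells at 2×10^6 cells/mL were treated with 10 μM compound for 30 min. Aliquots were heated for 3 min across 48°C-58°C, pooled, and extracted in PBS with 0.5% NP-40 at 4°C; soluble protein was the supernatant after 21,000xg for 90 min. Soluble protein was quantified by TMTpro 16plex LC-MS/MS with channel sums equalised, and reported as log2 fold change in thermal stability against DMSO controls, with values from duplicates.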
# [2] = compound: NCC(=O)Nc1ccc(-n2nc(C(F)(F)F)cc2-c2ccc3c(ccc4ccccc43)c2)cc1
# Procedure, shortened: as §1
# [3] = compound: O=C1NC(=O)C(c2cnc3ccccn23)=C1c1cn2c3c(cc(F)cc13)CN(C(=O)N1CCCCC1)CC2
# Procedure, shortened: as §1
# [4] = compound: NC(=O)Nc1cc(-c2cccc(F)c2)sc1C(=O)N[C@H]1CCCNC1
# Procedure, shortened: as §1
# [5] = compound: Nc1ccccc1NC(=O)c1ccc(CNC(=O)OCc2cccnc2)cc1 [entinostat]
# Procedure, shortened: as §1
# [6] = compound: O=C(CCCCCCC(=O)Nc1ccccc1)NO [vorinostat]
# Procedure, shortened: as §1
# [7] = compound: O=C(CCCCCCNC(=O)c1cnc(N(c2ccccc2)c2ccccc2Cl)nc1)NO [citarinostat]
# Procedure, shortened: as §1
# [8] = compound: c1cc(OCCN2CCCCC2)cc(-c2n[nH]c3ccc(-c4nnc[nH]4)cc23)c1
# Procedure, shortened: as §1
# [9] = compound: c1cn2cc(-c3ccc4cn[nH]c4c3)nc(Nc3ccc(N4CCOCC4)cc3)c2n1 [entospletinib]
# Procedure, shortened: as §1
# [10] = compound: NC1(c2ccc(-c3nc4ccn5c(=O)[nH]nc5c4cc3-c3ccccc3)cc2)CCC1
# Procedure, shortened: as §1
# [11] = compound: O=C(O)c1ccc2c(c1)nc(Nc1cccc(Cl)c1)c1ccncc12 [silmitasertib]
# Procedure, shortened: as §1
target,measurement,setting,value
SPRED1 (UniProt Q7Z699),log2 fold change,[1],inactive: 0.005
same,log2 fold change,[2],inactive: -0.031
same,log2 fold change,[3],inactive: -0.016
SPATS2L isoform 3 (UniProt Q9NUQ6),log2 fold change,[4],inactive: -0.061
same,log2 fold change,[1],inactive: 0.091
same,log2 fold change,[5],inactive: -0.05
same,log2 fold change,[3],inactive: 0.196
SRBD1 (UniProt Q8N5C6),log2 fold change,[6],inactive: -0.156
same,log2 fold change,[3],inactive: -0.424
SPIRE2 (UniProt Q8WWL2),log2 fold change,[4],inactive: -0.096
same,log2 fold change,[5],inactive: -0.044
same,log2 fold change,[6],inactive: 0.078
same,log2 fold change,[7],inactive: 0.018
same,log2 fold change,[3],inactive: 0.679
same,log2 fold change,[8],inactive: 0.659
same,log2 fold change,[9],inactive: 0.425
SPIRE1 (UniProt Q08AE8),log2 fold change,[1],inactive: -0.025
same,log2 fold change,[10],inactive: 0.063
same,log2 fold change,[2],inactive: -0.04
same,log2 fold change,[6],inactive: -0.035
same,log2 fold change,[7],inactive: 0.022
same,log2 fold change,[11],inactive: -0.008
same,log2 fold change,[3],inactive: 0.224
same,log2 fold change,[8],inactive: 0.023
SPPL3 (UniProt Q8TCT6),log2 fold change,[10],inactive: -0.313
same,log2 fold change,[11],inactive: -0.178
SSX1 (UniProt Q16384),log2 fold change,[1],inactive: 0.047
same,log2 fold change,[3],inactive: 0.056
STAR (UniProt P49675),log2 fold change,[10],inactive: 0.019
same,log2 fold change,[2],inactive: 0.023
same,log2 fold change,[11],inactive: -0.266
SSBP2 (UniProt P81877),log2 fold change,[10],inactive: 0.045
same,log2 fold change,[6],inactive: -0.162
same,log2 fold change,[7],inactive: -0.045
same,log2 fold change,[11],inactive: -0.172
same,log2 fold change,[3],inactive: -0.126
same,log2 fold change,[8],inactive: 0.086
same,log2 fold change,[9],inactive: -0.023
SPATS2 (UniProt Q86XZ4),log2 fold change,[2],inactive: -0.061
same,log2 fold change,[6],inactive: -0.009
same,log2 fold change,[7],inactive: -0.002
same,log2 fold change,[8],inactive: -0.152
same,log2 fold change,[9],inactive: -0.016
STK19 (UniProt P49842),log2 fold change,[1],inactive: 0.012
SQOR (UniProt Q9Y6N5),log2 fold change,[4],inactive: -0.137
same,log2 fold change,[2],inactive: -0.008
same,log2 fold change,[5],inactive: -0.096
same,log2 fold change,[6],inactive: -0.085
same,log2 fold change,[3],inactive: -0.034
SPHK2 isoform 5 (UniProt Q9NRA0),log2 fold change,[4],inactive: 0.139
same,log2 fold change,[5],inactive: -0.183
SPTAN1 isoform 3 (UniProt Q13813),log2 fold change,[2],inactive: -0.014
ST3GAL1 (UniProt Q11201),log2 fold change,[3],inactive: -0.057
SPRED2 (UniProt Q7Z698),log2 fold change,[1],inactive: 0.327
STIP1 (UniProt H0YGI8),log2 fold change,[6],inactive: 0.118
SSR2 (UniProt P43308),log2 fold change,[10],inactive: 0.578
same,log2 fold change,[11],inactive: -0.177
SPTY2D1 (UniProt Q68D10),log2 fold change,[3],inactive: 0.219
SPRR2B (UniProt P35325),log2 fold change,[10],inactive: 0.043
same,log2 fold change,[2],inactive: -0.204
same,log2 fold change,[7],inactive: -0.038
same,log2 fold change,[11],inactive: 0.048
same,log2 fold change,[3],inactive: -0.153
same,log2 fold change,[8],inactive: 0.362
same,log2 fold change,[9],inactive: 0.012
SREBF2 (UniProt Q12772),log2 fold change,[4],inactive: -0.116
same,log2 fold change,[10],inactive: -0.031
same,log2 fold change,[2],inactive: -0.106
same,log2 fold change,[5],inactive: -0.011
same,log2 fold change,[7],inactive: 0.05
same,log2 fold change,[11],inactive: 0.009
same,log2 fold change,[3],inactive: -0.049
same,log2 fold change,[8],inactive: 0.012
same,log2 fold change,[9],inactive: -0.058
SRCIN1 (UniProt Q9C0H9),log2 fold change,[1],inactive: 0.019
same,log2 fold change,[2],inactive: -0.084
same,log2 fold change,[6],inactive: 0.226
SSH2 (UniProt Q76I76),log2 fold change,[4],inactive: -0.048
same,log2 fold change,[5],inactive: -0.08
STARD10 (UniProt Q9Y365),log2 fold change,[4],inactive: 0.126
same,log2 fold change,[2],inactive: -0.07
same,log2 fold change,[5],inactive: 0.306
same,log2 fold change,[7],inactive: 0.027
same,log2 fold change,[3],inactive: -0.087
same,log2 fold change,[8],inactive: -0.099
same,log2 fold change,[9],inactive: 0.022
SSB (UniProt E7ERC4),log2 fold change,[10],inactive: -0.168
same,log2 fold change,[2],inactive: -0.065
same,log2 fold change,[6],inactive: -0.176
same,log2 fold change,[11],inactive: 0.022
SSBP4 (UniProt U3KPY3),log2 fold change,[10],inactive: -0.014
same,log2 fold change,[2],inactive: 0.016
same,log2 fold change,[11],inactive: 0.133
SPRR1B (UniProt P22528),log2 fold change,[10],inactive: 0.046
same,log2 fold change,[7],inactive: -0.369
same,log2 fold change,[11],inactive: -0.099
same,log2 fold change,[8],inactive: 2.16
same,log2 fold change,[9],inactive: -0.078
SRCAP (UniProt Q6ZRS2),log2 fold change,[4],inactive: -0.079
same,log2 fold change,[10],inactive: 0.001
same,log2 fold change,[2],inactive: -0.041
same,log2 fold change,[5],inactive: 0.077
same,log2 fold change,[6],inactive: -0.039
same,log2 fold change,[7],inactive: 0.014
same,log2 fold change,[11],inactive: -0.022
same,log2 fold change,[8],inactive: 0.001
SRGAP1 (UniProt Q7Z6B7),log2 fold change,[10],inactive: 0.179
same,log2 fold change,[2],inactive: -0.176
same,log2 fold change,[6],inactive: -0.152
same,log2 fold change,[11],inactive: -0.04
same,log2 fold change,[3],inactive: 0.039
SPEN (UniProt Q96T58),log2 fold change,[1],inactive: 0.062
same,log2 fold change,[10],inactive: 0.005
same,log2 fold change,[2],inactive: 0.032
same,log2 fold change,[6],inactive: -0.032
same,log2 fold change,[7],inactive: 0.061
same,log2 fold change,[11],inactive: -0.046
same,log2 fold change,[3],inactive: 0.033
same,log2 fold change,[8],inactive: 0.16
same,log2 fold change,[9],inactive: -0.036
SRD5A3 (UniProt Q9H8P0),log2 fold change,[1],inactive: -0.081
same,log2 fold change,[10],inactive: -0.182
same,log2 fold change,[6],inactive: -0.024
same,log2 fold change,[7],inactive: 0.085
same,log2 fold change,[11],inactive: -0.005
same,log2 fold change,[8],inactive: -0.145
same,log2 fold change,[9],inactive: -0.028
STC2 (UniProt O76061),log2 fold change,[2],inactive: 0.613
same,log2 fold change,[6],inactive: 0.002
STIM2 isoform 2 (UniProt Q9P246),log2 fold change,[1],inactive: -0.128
same,log2 fold change,[2],inactive: 0.066
same,log2 fold change,[7],inactive: -0.029
same,log2 fold change,[3],inactive: 0.177
same,log2 fold change,[8],inactive: -0.028
same,log2 fold change,[9],inactive: 0.061
STAB1 (UniProt Q9NY15),log2 fold change,[10],inactive: -0.197
same,log2 fold change,[2],inactive: -0.258
same,log2 fold change,[6],inactive: 0.068
same,log2 fold change,[11],inactive: 0.288
same,log2 fold change,[3],inactive: -0.356
SPDL1 (UniProt Q96EA4),log2 fold change,[4],inactive: -0.165
same,log2 fold change,[5],inactive: 0.543
same,log2 fold change,[7],inactive: 0.181
same,log2 fold change,[8],inactive: 0.027
same,log2 fold change,[9],inactive: -0.143
SPICE1 (UniProt Q8N0Z3),log2 fold change,[6],inactive: -0.561
SREBF1 isoform 4 (UniProt P36956),log2 fold change,[10],active: -0.565
same,log2 fold change,[7],inactive: 0.095
same,log2 fold change,[11],inactive: 0.01
same,log2 fold change,[3],inactive: 0.057
same,log2 fold change,[8],inactive: 0.007

# Six entries from above, reformatted.
target	measurement	setting	value
SREBF2 (UniProt Q12772)	log2 fold change	[2]	inactive: -0.106
same	log2 fold change	[5]	inactive: -0.011
same	log2 fold change	[7]	inactive: 0.05
same	log2 fold change	[11]	inactive: 0.009
same	log2 fold change	[3]	inactive: -0.049
same	log2 fold change	[8]	inactive: 0.012

# Reference: the supplement of paper PMC10849652
